In paper PMC5035144:
No constants are given. Whether binding was seen depends on the method and setting. In cells and extracts the contact can be indirect.

Target: Flag-Rbbp5, Q15291
Experiment: co-IP; Flag-tagged proteins expressed in 293T cells and immunoprecipitated with anti-Flag antibody; endogenous partners detected by western blot
Settings: remark: other sources report otherwise

binding: no binding
B1: Pask, endogenous in HEK293T cells, Q96RG2 1-1323 (enzyme)
chain: MEDGGLTAFEEDQRCLSQSLPLPVSAEGPAAQTTAEPSRSFSSAHRHLSRRNGLSRLCQSRTALSEDRWSSYCLSSLAAQNICTSKLHCPAAPEHTDPSEPRGSVSCCSLLRGLSSGWSSPLLPAPVCNPNKAIFTVDAKTTEILVANDKACGLLGYSSQDLIGQKLTQFFLRSDSDVVEALSEEHMEADGHAAVVFGTVVDIISRSGEKIPVSVWMKRMRQERRLCCVVVLEPVERVSTWVAFQSDGTVTSCDSLFAHLHGYVSGEDVAGQHITDLIPSVQLPPSGQHIPKNLKIQRSVGRARDGTTFPLSLKLKSQPSSEEATTGEAAPVSGYRASVWVFCTISGLITLLPDGTIHGINHSFALTLFGYGKTELLGKNITFLIPGFYSYMDLAYNSSLQLPDLASCLDVGNESGCGERTLDPWQGQDPAEGGQDPRINVVLAGGHVVPRDEIRKLMESQDIFTGTQTELIAGGQLLSCLSPQPAPGVDNVPEGSLPVHGEQALPKDQQITALGREEPVAIESPGQDLLGESRSEPVDVKPFASCEDSEAPVPAEDGGSDAGMCGLCQKAQLERMGVSGPSGSDLWAGAAVAKPQAKGQLAGGSLLMHCPCYGSEWGLWWRSQDLAPSPSGMAGLSFGTPTLDEPWLGVENDREELQTCLIKEQLSQLSLAGALDVPHAELVPTECQAVTAPVSSCDLGGRDLCGGCTGSSSACYALATDLPGGLEAVEAQEVDVNSFSWNLKELFFSDQTDQTSSNCSCATSELRETPSSLAVGSDPDVGSLQEQGSCVLDDRELLLLTGTCVDLGQGRRFRESCVGHDPTEPLEVCLVSSEHYAASDRESPGHVPSTLDAGPEDTCPSAEEPRLNVQVTSTPVIVMRGAAGLQREIQEGAYSGSCYHRDGLRLSIQFEVRRVELQGPTPLFCCWLVKDLLHSQRDSAARTRLFLASLPGSTHSTAAELTGPSLVEVLRARPWFEEPPKAVELEGLAACEGEYSQKYSTMSPLGSGAFGFVWTAVDKEKNKEVVVKFIKKEKVLEDCWIEDPKLGKVTLEIAILSRVEHANIIKVLDIFENQGFFQLVMEKHGSGLDLFAFIDRHPRLDEPLASYIFRQLVSAVGYLRLKDIIHRDIKDENIVIAEDFTIKLIDFGSAAYLERGKLFYTFCGTIEYCAPEVLMGNPYRGPELEMWSLGVTLYTLVFEENPFCELEETVEAAIHPPYLVSKELMSLVSGLLQPVPERRTTLEKLVTDPWVTQPVNLADYTWEEVFRVNKPESGVLSAASLEMGNRSLSDVAQAQELCGGPVPGEAPNGQGCLHPGDPRLLTS
